Measured values as given in the supplement of paper PMC7877785.
± gives the uncertainty stated by the source. Many of these values have a large error.

Test: self-splicing fitness, log relative to wild type (ln ratio); higher = more splicing; Tetrahymena group I intron in knt gene, E. coli kanamycin selection, DiMSum; sequences stand for … in CUCUCU…GGAGGGAAAAGUUAUCAGGCAUGCACCUGGUAGCUAGUCUUUAAACCAAUAGAUUGCAUCGGUUUAAAAGGCAAGACCGUCAAAUUGCGGGAAAGGGGUCAACAGCCGUUCAGUACCAAGUCUCAGGGGAAACUUUGAGAUGGCCUUGCAAAGGGUAUGGUAAUAAGCUGACGGACAUGGUCCUAACCACGCAGCCAAGUCCUAAGUCAACAGAUCUUCUGUUGAUAUGGAUGCAGUUCACAGACUAAAUGUCGGUCGGGGAAGAUGUAUUCUUCUCAUAAGAUAUAGUCGGACCUCUCCUUAAUGGGAGCUAGCGGAUGAAGUGAUGCAACACUGGAGCCGCUGGGAACUAAUUUGUAUGCGAAAGUAUAUUGAUUAGUUUUGGAGUACUCGUGGUCG
How it was run: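 Colonies from six replicate transformations of E. coli BL21(DE3) were pooled and amplicon-sequenced on an Illumina HiSeq 2500. The library placed an intron with all eight P1ex-region nucleotides randomised inside the knt kanamycin-resistance gene on pET-22b(+), and cells grew overnight at 37°C or 30°C on LB agar with or without 25 μg/mL kanamycin (plus 100 μg/mL carbenicillin, 50 μM IPTG, 0.2% rhamnose). Fitness is the DiMSum error-weighted combination of wild-type-normalised replicate fold changes, kanamycin versus none.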

| Sequence | self-splicing fitness (ln) (30 °C) | self-splicing fitness (ln) (37 °C) |
| --- | --- | --- |
| ACAAAGCAAUAUUACGAUCG | -0.241 ± 0.074 | 0.193 ± 0.095 |
| ACAGAGCAAUAUUACGACAC | -2.65 ± 0.79 | -1.68 ± 0.53 |
| AAUGAGCAAUAUUACGCGCU | -4.2 ± 0.72 | – |
| UCCCAGCAAUAUUACGACUG | -3.58 ± 0.2 | -3.16 ± 0.32 |
| CUUGAGCAAUAUUACGGAGC | -4.72 ± 0.72 | – |
| GGAGAGCAAUAUUACGAGGG | – | -2.72 ± 1.1 |
| UAUGAGCAAUAUUACGCACU | -3.07 ± 0.61 | -0.818 ± 0.54 |
| UUCCAGCAAUAUUACGCUAC | -3.97 ± 0.75 | 0.608 ± 0.79 |
| GGGAAGCAAUAUUACGGGGC | – | -2.71 ± 0.53 |
| GAGGAGCAAUAUUACGGGGC | -0.135 ± 1.2 | -1.79 ± 1.2 |
| CAGGAGCAAUAUUACGAGAC | -3.31 ± 0.61 | – |
| GACAAGCAAUAUUACGAGGA | -3.16 ± 0.21 | -2.42 ± 0.14 |
| UUCAAGCAAUAUUACGUUGC | -3.68 ± 0.52 | – |
| CGUGAGCAAUAUUACGCGGG | – | -2.62 ± 0.62 |
| UACGAGCAAUAUUACGAGCC | -4.29 ± 1.1 | -2.27 ± 0.63 |
| CCAGAGCAAUAUUACGCUGA | -2.55 ± 0.56 | -2.39 ± 1.1 |
| ACAGAGCAAUAUUACGAUCA | – | 0.0082 ± 0.66 |
| CAGGAGCAAUAUUACGGACC | – | -3.34 ± 0.74 |
| CCGGAGCAAUAUUACGGAAU | -2.95 ± 0.26 | -2.96 ± 0.25 |
| CAGCAGCAAUAUUACGACGC | -3.88 ± 1.1 | – |

Given tab-delimited: part of the list above
Sequence	self-splicing fitness (ln) (30 °C)	self-splicing fitness (ln) (37 °C)
GGAGAGCAAUAUUACGAGGG	–	-2.72 ± 1.1
UAUGAGCAAUAUUACGCACU	-3.07 ± 0.61	-0.818 ± 0.54

Reprinted at random: two records from the list.

| Sequence | self-splicing fitness (ln) (30 °C) | self-splicing fitness (ln) (37 °C) |
| --- | --- | --- |
| CCAGAGCAAUAUUACGCUGA | -2.55 ± 0.56 | -2.39 ± 1.1 |
| UUCCAGCAAUAUUACGCUAC | -3.97 ± 0.75 | 0.608 ± 0.79 |

Additional entries.

| Sequence | self-splicing fitness (ln) (30 °C) | self-splicing fitness (ln) (37 °C) |
| --- | --- | --- |
| CAAUAGCAAUAUUACGACCC | -0.828 ± 1 | – |
| UCCUAGCAAUAUUACGACAA | -3.57 ± 1 | – |
| CGAGAGCAAUAUUACGUAUA | – | -4.33 ± 0.51 |
| UCCUAGCAAUAUUACGGUUA | -3.23 ± 0.74 | – |
| GGUCAGCAAUAUUACGCGUC | -1.46 ± 0.17 | 0.149 ± 0.19 |
| GCAAAGCAAUAUUACGCUUC | -4.15 ± 0.33 | -2.39 ± 0.33 |
| GGGGAGCAAUAUUACGUCGG | -5.44 ± 1 | – |
| CCUAAGCAAUAUUACGACCC | -4.2 ± 0.59 | -0.457 ± 0.56 |
| CAUAAGCAAUAUUACGCCGA | -3.42 ± 0.77 | – |
| GCGGAGCAAUAUUACGAAUA | -3.58 ± 1 | – |
| UGGUAGCAAUAUUACGUACU | – | -0.977 ± 0.68 |
| UUGGAGCAAUAUUACGCCAU | -2.36 ± 1.2 | 0.855 ± 0.84 |
| GACAAGCAAUAUUACGCUAG | -2.28 ± 0.081 | -1.36 ± 0.089 |
| CAGGAGCAAUAUUACGAAGC | -4.53 ± 0.59 | -1.94 ± 0.51 |
| UGGUAGCAAUAUUACGCCCC | -0.393 ± 0.73 | -0.595 ± 1 |
| UGGCAGCAAUAUUACGCGUC | -3.54 ± 0.37 | -2.21 ± 0.3 |
| CGAUAGCAAUAUUACGCGUC | -4.56 ± 1 | – |
| GCGAAGCAAUAUUACGGACG | -0.0597 ± 0.13 | -0.969 ± 0.2 |
| AUUAAGCAAUAUUACGAGAA | -2.83 ± 0.57 | – |
| GGUCAGCAAUAUUACGUGGC | -4.71 ± 0.72 | -3.49 ± 0.52 |

| Sequence | self-splicing fitness (ln) (30 °C) | self-splicing fitness (ln) (37 °C) |
| --- | --- | --- |
| ACUGAGCAAUAUUACGAAAA | -2.91 ± 1.1 | – |
| UUAUAGCAAUAUUACGGGGC | – | -2.54 ± 0.54 |
| UGCGAGCAAUAUUACGGACC | – | -3.08 ± 0.74 |
| UCUGAGCAAUAUUACGAUUC | – | -3.33 ± 1 |
| AUGGAGCAAUAUUACGGACC | – | -0.61 ± 0.78 |
| UAGUAGCAAUAUUACGUGGC | -4.32 ± 0.52 | – |
| UCAUAGCAAUAUUACGGUUC | – | -3.07 ± 1 |
| CGCAAGCAAUAUUACGUGUU | -3.48 ± 0.11 | -2.9 ± 0.14 |
| CUGCAGCAAUAUUACGCUAA | – | -3.1 ± 0.52 |
| UCUGAGCAAUAUUACGCCAA | -3.37 ± 0.56 | -1.51 ± 0.32 |
| CGCUAGCAAUAUUACGUUAC | – | -3.2 ± 0.6 |
| UGCGAGCAAUAUUACGAGAC | -3.16 ± 1 | -2.39 ± 1.1 |
| UCGGAGCAAUAUUACGCCCU | – | -2.16 ± 0.57 |
| UCAUAGCAAUAUUACGCUUC | -4.05 ± 0.51 | – |
| UGUAAGCAAUAUUACGAACU | -0.349 ± 0.12 | -0.682 ± 0.12 |
| GGCUAGCAAUAUUACGCCCG | -4.06 ± 0.47 | -3.68 ± 0.26 |
| GCGCAGCAAUAUUACGAAAA | -1.92 ± 0.21 | -1.7 ± 0.21 |
| UAUAAGCAAUAUUACGGAGC | -2.29 ± 0.64 | – |
| CUCCAGCAAUAUUACGCGCC | -2.7 ± 0.29 | -2.05 ± 0.38 |
